Data: PMC5428781, “Novel insights into the interaction of UBA5 with UFM1 via a UFM1-interacting sequence” (Scientific Reports, 2017)

By UniProt entry, the sequences of proteins in these tests, tags left out. Where a name states a change or a piece, a line headed by the entry shows the natural chain unless it says otherwise.
UniProt P61960: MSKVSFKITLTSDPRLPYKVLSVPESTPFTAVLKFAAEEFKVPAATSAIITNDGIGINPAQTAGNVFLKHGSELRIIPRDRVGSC

Tests used:
[1] = molecular target: His6-UFM1 (human) (UniProt P61960); assay: pull-down; 6XHis-hUFM1 immobilised on Ni beads; UBA5 truncations, GST-UBA5 fragments or mutants added; 15% SDS-PAGE, Coomassie Brilliant Blue; both purified
[2] = molecular target: T1, ubiquitin-fold modifier 1 (UFM1) (human, UniProt P61960 1-83); assay: crystal structure; UIS-UFM1 fusion, P4(3)22, two molecules in the asymmetric unit; hanging drop, 20 °C, 0.2 M potassium phosphate dibasic, 20% PEG 3350; both purified
T1 construct: ubiquitin-fold modifier 1 (UFM1), human; the form that ends at Gly 83 (the residues missing in the models are counted up to Gly 83); pET15b, N-terminal His6 followed by a TEV site; purified by the protocol of the UBA5 constructs, which removes the tag; In solution a monomer and a fraction of dimer; also called UFM1 WT; UFM1 alone; source: E. coli, purified (His-Trap, TEV cleavage, second …)

## GST-UBA5 314–363 (from UniProt Q9GZZ9 314-363) (domain or fragment)
[1]
  binding: binds

## GST-UBA5 314–404 (from UniProt Q9GZZ9 314-404) (domain or fragment)
[1]
  binding: binds

B1: UBA5 346 (amino acids 57–346) (domain or fragment, UniProt Q9GZZ9 57-346)
chain: MALKRMGIVSDYEKIRTFAVAIVGVGGVGSVTAEMLTRCGIGKLLLFDYDKVELANMNRLFFQPHQAGLSKVQAAEHTLRNINPDVLFEVHNYNITTVENFQHFMDRISNGGLEEGKPVDLVLSCVDNFEARMTINTACNELGQTWMESGVSENAVSGHIQLIIPGESACFACAPPLVVAANIDEKTLKREGVCAASLPTTMGVVAGILVQNVLKFLLNFGTVSFYLGYNAMQDFFPTMSMKPNPQCDDRNCRKQQEEYKKKVAALPKQEVIQEEEEIIHEDNEWGIELV
[1]
  binding: binds

## IIHEDNEWGIELV (domain or fragment, UniProt Q9GZZ9 334-346) [UFM1-interacting sequence (UIS) of UBA5, amino acids 334–346]
[2]
  binding: binds

## EYKKKVAALPKQEVIQEEEEIIHEDNEWGIELV (domain or fragment, UniProt Q9GZZ9 314-346) [GST-UBA5 314–346]
[1]
  binding: binds

B2: UBA5 adenylation domain (AA 57–329) (domain or fragment, UniProt Q9GZZ9 57-329)
chain: MALKRMGIVSDYEKIRTFAVAIVGVGGVGSVTAEMLTRCGIGKLLLFDYDKVELANMNRLFFQPHQAGLSKVQAAEHTLRNINPDVLFEVHNYNITTVENFQHFMDRISNGGLEEGKPVDLVLSCVDNFEARMTINTACNELGQTWMESGVSENAVSGHIQLIIPGESACFACAPPLVVAANIDEKTLKREGVCAASLPTTMGVVAGILVQNVLKFLLNFGTVSFYLGYNAMQDFFPTMSMKPNPQCDDRNCRKQQEEYKKKVAALPKQEVIQ
[1]
  binding: no binding

These are yes or no findings as the source states them, for the method shown. A result given as binding can be weak or reduced; the word gives no strength. For part of these data: Sequences can lack the tags named with a protein.
